{
  "sequences": {"note": "Sequences of proteins named here, by UniProt entry; tags and fusion partners are left off.", "UniProt Q9UBN7": "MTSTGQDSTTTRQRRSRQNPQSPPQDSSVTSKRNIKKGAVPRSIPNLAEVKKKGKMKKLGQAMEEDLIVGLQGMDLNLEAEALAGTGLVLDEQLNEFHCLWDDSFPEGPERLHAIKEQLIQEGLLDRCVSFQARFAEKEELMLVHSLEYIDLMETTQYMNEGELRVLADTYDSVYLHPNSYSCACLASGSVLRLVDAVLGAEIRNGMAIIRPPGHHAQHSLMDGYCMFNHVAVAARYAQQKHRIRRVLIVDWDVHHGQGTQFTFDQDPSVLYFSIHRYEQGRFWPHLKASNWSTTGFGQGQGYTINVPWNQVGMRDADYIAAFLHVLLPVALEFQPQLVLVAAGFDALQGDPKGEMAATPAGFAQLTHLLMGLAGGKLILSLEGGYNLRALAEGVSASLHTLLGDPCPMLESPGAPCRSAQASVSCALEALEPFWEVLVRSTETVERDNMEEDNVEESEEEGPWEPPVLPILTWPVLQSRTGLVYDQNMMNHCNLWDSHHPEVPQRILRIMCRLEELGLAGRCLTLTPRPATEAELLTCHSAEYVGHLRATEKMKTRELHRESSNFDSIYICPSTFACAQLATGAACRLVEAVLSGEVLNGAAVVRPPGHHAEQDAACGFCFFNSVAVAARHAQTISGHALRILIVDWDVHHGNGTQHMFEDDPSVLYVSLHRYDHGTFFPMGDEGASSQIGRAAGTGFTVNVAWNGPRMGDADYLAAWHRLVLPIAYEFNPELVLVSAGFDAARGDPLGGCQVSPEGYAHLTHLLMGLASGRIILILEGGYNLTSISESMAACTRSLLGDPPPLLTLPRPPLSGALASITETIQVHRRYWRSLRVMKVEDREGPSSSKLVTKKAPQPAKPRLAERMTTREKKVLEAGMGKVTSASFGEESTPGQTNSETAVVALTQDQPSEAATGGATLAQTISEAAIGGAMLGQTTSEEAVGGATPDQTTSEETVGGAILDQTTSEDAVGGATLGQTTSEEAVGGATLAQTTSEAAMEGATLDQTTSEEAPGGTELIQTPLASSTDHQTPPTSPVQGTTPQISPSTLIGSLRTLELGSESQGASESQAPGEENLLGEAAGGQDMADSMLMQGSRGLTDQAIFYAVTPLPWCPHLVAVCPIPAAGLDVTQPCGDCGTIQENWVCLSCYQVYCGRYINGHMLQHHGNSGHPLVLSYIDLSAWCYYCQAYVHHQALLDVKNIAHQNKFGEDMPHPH"},
  "source": "paper PMC3785417",
  "key": {"[1]": {"biological_target": "GST-tagged p62 (SQSTM1/p62, sequestosome 1) (UniProt Q13501)", "test": "pull-down; 10 µg GST-p62 on glutathione beads incubated overnight at 4°C with lysates of HEK cells expressing HA-HDAC6; washed 3 times with NETN buffer; Western blot with anti-HA and anti-GST; only the target purified"}, "full length FLAG-HDAC6": {"biological_target": "full length FLAG-HDAC6 (UniProt Q9UBN7)", "test": "co-IP; HEK cells co-transfected with FLAG-HDAC6 and tagged p62 constructs; Triton Lysis Buffer; HDAC6 immunoprecipitated with FLAG antibody; Western blot for myc- or HA-tagged p62"}},
  "note": "Results are given in words; binding and its absence hold for the method and conditions named. In cells and extracts the contact can be indirect. Some results given as binding are weak or reduced against the parent protein; the word gives no strength.",
  "data": [
    {"substance": "HA-tagged HDAC6 (histone deacetylase 6) (from UniProt Q9UBN7 1-1215) (enzyme)", "values": [
      {"measurement": "binding", "setting": "[1]", "result": "binds"}
    ]},
    {"substance": "myc-tagged full length p62 (from UniProt Q13501 1-440)", "values": [
      {"measurement": "binding", "setting": "full length FLAG-HDAC6", "result": "binds"}
    ]}
  ]
}
